Experimental data published in the supplement of paper PMC4683952.
The other results are listed elsewhere or left out. No stated cut-off is given here; in the data, active = 2 or more and inactive = the rest. Single values are uncertain here, since repeats match poorly.

Each compound was assayed on Lgr5 (MarsCy1-Lgr5-EGFP, U2OS) (assay: cell-surface Lgr5 expression (SCi1 fluorescence, background-subtracted) relative to WT DMSO (fold of DMSO control); higher = more Lgr5 at the plasma membrane). Conditions: U2OS MarsCy1-Lgr5-EGFP stable; treatment time: overnight; library: ActiProbe-5K (TimTec); 25 µM.

Structure (SMILES) | cell-surface Lgr5 expression
Cn1ccnc1C(O)c1cccs1 (configuration not stated) | inactive: 1.03
N/C(=N/O)C1CCCc2c1[nH]c1ccc(Br)cc21 (configuration not stated) | inactive: 1.22
CN1CCN(c2nc(N(c3ccccc3)c3ccccc3)nc(-n3ccnc3)n2)CC1 | inactive: 1.09
Nc1nonc1-c1noc(NCc2cccs2)n1 | inactive: 1.08
Cc1cc(C)n2nnnc2c1C#N | inactive: 1
Cc1sc2[nH]c(=S)n(C)c(=O)c2c1C | inactive: 1.28
Cc1cc(C)n(CC(C)O)c(=O)c1C#N (configuration not stated) | inactive: 1.13
Cc1oc(C23CC4CC(CC(C4)C2)C3)cc1C(=O)[O-] | inactive: 0.973
C=C1OC(n2cc(C)c(=O)[nH]c2=O)CC1O (configuration not stated) | inactive: 1.02
COC(=O)Oc1nsnc1N1CCOCC1 | inactive: 1.29
CC1CNC(C)(C)C(O)C1 (configuration not stated) | inactive: 1.07
CC1(C)C2CCC1(CS(=O)(=O)N1CCCC1C(=O)O)C(=O)C2 (configuration not stated) | inactive: 0.981
O=S(=O)(NCc1ccc2c(c1)OCO2)c1ccc(F)cc1 | inactive: 1.34
O/N=C(\c1ccccc1)C(O)c1ccccc1 (configuration not stated) | inactive: 1.2
Cc1ccc(-c2csc(=[NH2+])[nH]2)cc1.[Br-] | inactive: 1.06
CCn1c(S)nc(C(N)=O)c1N | inactive: 1.32
COCCCNC(=O)N1CCOCC1 | inactive: 1.15
CN(C)CCC(=O)c1ccco1.Cl | inactive: 1.71
N=c1nc2n(c(=N)[nH]1)NC(c1ccc(F)cc1)=CS2 | inactive: 0.713
Cc1ccc(C2=Nn3c(nnc3C(F)(F)F)SC2)cc1.Cl | inactive: 0.867
CSc1nc2nc(C)cc(O)n2n1 | inactive: 1.25
C=CS(=O)(=O)c1ccc(OC)c(N)c1 | inactive: 1.25

Structure (SMILES) | cell-surface Lgr5 expression
CCn1ncc(CN2CCN(C(=O)Cn3nc(C(F)(F)F)c(Cl)c3C3CC3)CC2)c1C | inactive: 1.1
Cc1ccc2ccccc2c1C[N+](C)(C)CC#Cc1ccccc1.[Br-] | inactive: 1.34
CCCCC(CC)C(=O)Nc1nnc(CC(C)C)s1 (configuration not stated) | inactive: 1.41
Nc1ccc2cc(Br)c3ccccc3c2c1 | inactive: 0.76
C(C1C(C(OC\C(=C(/Cl)Cl)Cl)=O)CC=CC1)(NC1CCCCC1)=O (configuration not stated) | inactive: 1.28
Brc1ccc2c(c1)C(c1ccccc1)=NNC(c1ccccc1)=N2 | inactive: 0.713
Cn1c(=O)c2c(ncn2CC#N)n(C)c1=O | inactive: 1.13
c1ccc2c(c1)Nc1ccccc1O2 | inactive: 0.993
CCOC(=O)c1c(NC(=O)CSc2nnc(C)s2)sc2c1CCC2 | inactive: 1.28
CN(C)CCCNc1ccc([N+](=O)[O-])cc1[N+](=O)[O-].Cl | inactive: 1.28
O=C(O)Cn1cc(Cl)c([N+](=O)[O-])n1 | inactive: 1.21
CCOC(=O)c1sc(NC(=O)C(C)(C)C)c(C(=O)OCC)c1C | inactive: 1.16
O=C1c2ccccc2-c2c(-c3ccccc3)sc(=O)n21 | inactive: 1.54
CC1(C)CC2(CC(C)(C)N1)OC(=O)N(CCOC13CC4CC(CC(C4)C1)C3)C2(C)O (configuration not stated) | inactive: 1.51
CCN1C(=O)/C(=C\c2c(N3CCCC3)nc3c(C)cccn3c2=O)SC1=S | inactive: 0.914
S=c1oc(-c2ccco2)nn1CN1CCCCC1 | inactive: 1.13
Clc1ccc(/N=C\c2cc3ccccc3nc2Cl)cc1Cl | inactive: 1.43
C1CN(Cc2nnn[nH]2)CCO1 | inactive: 0.975
O=C(Cc1cccs1)Nc1nccs1 | inactive: 0.939
COc1c(Cl)cc(Cl)cc1Br | inactive: 1.05
COc1cc2c(cc1OC)C(=O)OC2 | inactive: 1.48
Nc1c([N+](=O)[O-])ncn1CCO | inactive: 1.13

Structure (SMILES) | cell-surface Lgr5 expression
c1ccc(-c2ccc(CSc3nc4ccccc4o3)cc2)cc1 | inactive: 1.01
CNC(=S)N1CCCC2=C[C@@H]3C[C@@H](CN4CCCC[C@H]34)[C@@H]21 | inactive: 1.29
CS(=O)(=O)c1nnnn1-c1ccccc1Cl | inactive: 0.97
O=S(=O)(Nc1ccc2ncccc2c1)c1ccc2oc3ccccc3c2c1 | inactive: 0.979
Clc1cccc(C2Oc3ccccc3C3CC(c4ccccc4)=NN32)c1 (configuration not stated) | inactive: 0.995
COc1c(Br)cc(Br)cc1/C=N/Nc1nncn1N | inactive: 1.33
Nc1nonc1/C(=N\O)N1CCN(CCO)CC1 | inactive: 1.08
Nn1c(S)nnc1-c1cccs1 | inactive: 1.17
C1=CC2CC1CC2CN1CCN(C2CC3CCC2C3)CC1 (configuration not stated) | inactive: 1.41
COc1ccc(NC(=S)SC)cc1OC | inactive: 1.43
CC(C)OC(=O)C(C)Nc1n[nH]c(=O)[nH]c1=O (configuration not stated) | inactive: 0.958
Cn1cccc1/C=N\NC(=O)CCCCCCC(=O)N/N=C/c1cccn1C | inactive: 1.26
N#Cc1c(SCC(=O)Nc2nncs2)sc2c(O)cc(=O)[nH]c12 | inactive: 1.17
S=c1oc(-c2cccs2)nn1CN1CCOCC1 | inactive: 1.11
CCn1cc(/C=C\C(=O)NC(=S)Nc2cnn(C)c2C)cn1 | active: 2.06
CN(C)S(=O)(=O)Nc1ccc(Cl)c(Cl)c1 | inactive: 0.984
CCCCCCCCN1C(=O)CCC1=O | inactive: 1.2
C#CC[N+](C)(C)Cc1c(C)ccc2ccccc12.[Br-] | inactive: 1.15
Cc1nn(C)cc1Nc1nnc(-c2cc(C(F)(F)F)nn2C)s1 | inactive: 0.87
O=C1CC(N2CCc3ccccc32)C(=O)N1c1cc(Cl)cc(Cl)c1 (configuration not stated) | inactive: 1.1
Cc1c(-n2nnc3cnn(C)c3c2=O)cnn1C | inactive: 1.13
OCn1nc(-c2ccc(Cl)cc2)n(Cc2ccccc2)c1=S | inactive: 1.2

Structure (SMILES) | cell-surface Lgr5 expression
CC(C)CC1NC(=S)N(C)C1=O (configuration not stated) | inactive: 1.1
CS(=O)(=O)Nc1ccc(S(=O)(=O)Nc2ncccn2)cc1 | inactive: 0.964
CC(C)N1C(=O)C(C#N)C2(CCNCC2)C(C#N)=C1S (configuration not stated) | inactive: 1.1
O=C(O)/C=C\C(=O)N1CCN(C(=O)/C=C\C(=O)O)CC1 | inactive: 1.12
C1CN(CCN2CCOCC2)CCO1 | inactive: 1.17
N/C(=N/OCc1ccc(Cl)cc1Cl)c1nonc1N | inactive: 0.975
NNC(=O)c1nnn(-c2nonc2N)c1CN1CCOCC1 | inactive: 1.05
O=C1NC(c2cccs2)C(C(=O)c2cccs2)=C1O (configuration not stated) | inactive: 1.32
Cc1nn(C)cc1Br | inactive: 1.07
CC(C)(C)c1c(C(=O)NN)nnn1-c1nonc1N | inactive: 1.22
CS(=O)(=O)N1CCc2cc(Br)ccc21 | inactive: 1.37
CCOC(=O)C1CCN(S(=O)(=O)N(C)C)CC1 | inactive: 1.07
O=C(O)CCCNS(=O)(=O)c1ccc(Br)s1 | inactive: 1.1
CC(C)CCC[C@@H](C)[C@H]1CC[C@H]2[C@@H]3CCC4CC(O)CCC4(C)[C@@H]3CCC12C (some centres not stated) | inactive: 1.01
CCOC(=O)Cc1csc(NS(=O)(=O)CC23CCC(CC2=O)C3(C)C)n1 (configuration not stated) | inactive: 1.01
Clc1ccc(OCc2nnc3n2N=C(c2ccc4c(c2)OCCO4)CS3)c(Cl)c1 | inactive: 1.03
O=C1c2nn[nH]c2C(=O)c2nn[nH]c21 | inactive: 1.34
O=C1C[C@@H]2[C@@H](CO)[C@H](O)C[C@@H]2O1 | inactive: 1.11
O=[N+]([O-])c1cc(C(F)(F)F)cc([N+](=O)[O-])c1-n1ccnc1 | inactive: 1.78
O=C1/C(=N\c2ccc3ccccc3c2)c2ccccc2N1CN1CCN(c2ccccc2)CC1 | inactive: 1.1
CCC(C1=C(O)CC(C)(C)CC1=O)C1C(=O)CC(C)(C)CC1=O (configuration not stated) | inactive: 1.06
Fc1ccccc1Nc1nc2nonc2nc1Nc1ccccc1F | inactive: 0.958

Taken from above.
In cell-surface Lgr5 expression, C=CS(=O)(=O)c1ccc(OC)c(N)c1 is listed with inactive: 1.25
In cell-surface Lgr5 expression, Nc1nonc1-c1noc(NCc2cccs2)n1 is listed with inactive: 1.08
In cell-surface Lgr5 expression, Cn1c(=O)c2c(ncn2CC#N)n(C)c1=O is listed with inactive: 1.13
In cell-surface Lgr5 expression, C(C1C(C(OC\C(=C(/Cl)Cl)Cl)=O)CC=CC1)(NC1CCCCC1)=O (configuration not stated) is listed with inactive: 1.28
In cell-surface Lgr5 expression, Nc1ccc2cc(Br)c3ccccc3c2c1 is listed with inactive: 0.76
In cell-surface Lgr5 expression, CS(=O)(=O)Nc1ccc(S(=O)(=O)Nc2ncccn2)cc1 is listed with inactive: 0.964
In cell-surface Lgr5 expression, COc1cc2c(cc1OC)C(=O)OC2 is listed with inactive: 1.48

Later entries:

Structure (SMILES) | cell-surface Lgr5 expression
COc1c2ccoc2nc2c(OC)cccc12 | inactive: 1.11
Cc1[nH]c(C#N)c(C)c1C=O | inactive: 0.946
Cc1cc(C(C)(C)C)c(O)c(C(C)(C)c2cc(C)cc(C(C)(C)C)c2O)c1 | inactive: 1.37
CCOC(=O)c1[nH]c(C)c(CC(C)C)c1C | inactive: 1.38
Cc1cc(O)nc(C(C)C)n1 | inactive: 1.1
N#Cc1sc2nc3c(c(-c4cccnc4)c2c1N)CCC3 | inactive: 1.08
CN1C(=O)/C(=N/NC2=NS(=O)(=O)c3ccccc32)c2ccccc21 | inactive: 1.13
O=C(c1cc(O)ccc1O)c1coc2ccc(O)cc12 | inactive: 1.54
NC(=O)NCC12CC3CC(CC(C3)C1)C2 | inactive: 1.05
Cn1cc(Cl)c(C(=O)O)n1 | inactive: 0.956
CCCc1cc(CN)on1 | inactive: 1.07
O=C(CSc1ncccn1)NC1CCSC1=O (configuration not stated) | inactive: 1.23
O=[N+]([O-])c1ccc(/C=N\c2ccc(Cl)c([N+](=O)[O-])c2)o1 | inactive: 1.91
Br.Nc1ccc(OCC[n+]2ccc(CCS(=O)(=O)[O-])cc2)cc1 | inactive: 1.62
CN1CCN(C(=O)CSc2nc3c(c(C(F)(F)F)c2C#N)CCC3)CC1 | inactive: 1.15
O=C(CCCCCCC(=O)N/N=C/c1ccc([N+](=O)[O-])o1)N/N=C\c1ccc([N+](=O)[O-])o1 | inactive: 1.35
CS(=O)(=O)c1nnnn1-c1cccc2ccccc12 | inactive: 0.767
CS(=O)(=O)Nc1ccccc1F | inactive: 1.12
CN(Cc1cccs1)C(=S)SCc1cccs1 | inactive: 1.42
